{
  "sequences": {"note": "By UniProt entry, the sequences of proteins in these tests, tags left out. Where a name states a change or a piece, a line headed by the entry shows the natural chain unless it says otherwise.", "UniProt P18054": "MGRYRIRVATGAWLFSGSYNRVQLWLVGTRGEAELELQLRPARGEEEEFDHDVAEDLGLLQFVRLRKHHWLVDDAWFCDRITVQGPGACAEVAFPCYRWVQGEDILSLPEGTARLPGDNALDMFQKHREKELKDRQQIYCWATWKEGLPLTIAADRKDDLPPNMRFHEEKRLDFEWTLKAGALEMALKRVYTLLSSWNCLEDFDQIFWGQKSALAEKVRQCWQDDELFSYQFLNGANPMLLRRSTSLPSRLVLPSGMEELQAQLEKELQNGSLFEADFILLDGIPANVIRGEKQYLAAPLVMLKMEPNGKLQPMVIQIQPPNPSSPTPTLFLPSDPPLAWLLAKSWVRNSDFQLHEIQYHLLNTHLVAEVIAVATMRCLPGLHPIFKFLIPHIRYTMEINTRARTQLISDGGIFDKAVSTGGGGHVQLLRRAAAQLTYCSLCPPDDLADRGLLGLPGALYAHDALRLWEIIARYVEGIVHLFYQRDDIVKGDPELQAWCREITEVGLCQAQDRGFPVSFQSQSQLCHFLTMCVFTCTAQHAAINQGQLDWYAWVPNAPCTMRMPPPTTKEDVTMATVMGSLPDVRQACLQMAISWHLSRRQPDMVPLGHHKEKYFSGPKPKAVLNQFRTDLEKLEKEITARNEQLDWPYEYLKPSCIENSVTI"},
  "source": "PubChem BioAssay AID1671190",
  "about": "(National Center for Advancing Translational Sciences (NCATS), 2021)",
  "note": "Screen size: about 580,000 compounds; about 6,100 (1.1%) were called active. The inconclusive results got no clear call from the source; some entries with a clear call stand among them for comparison. Calls come from the whole dose curve; as a rule, active = well fitted inhibition curve with a large enough effect; inconclusive = small, poorly fitted or top-dose-only effect, or another doubt; inactive = no such curve, though single readings can be large or run the other way. Potencies beside an inconclusive call are fits to weak or partial responses and may not hold up. % is set by controls: 0 for no effect and ±100 for the full control effect; potency is the fitted concentration of half-maximal effect.",
  "data": [
    {"target": "Polyunsaturated fatty acid lipoxygenase ALOX12 (Homo sapiens) (UniProt P18054)", "experiment": "Primary qHTS assay for inhibitors of human arachidonate 12S-lipoxygenase (ALOX12): Round 2", "conditions": "purified 12hLO, xylenol orange hydroperoxide absorbance; activity change, negative = inhibition: at 108 µM (top of the series) unless noted", "in_short": "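Hydroperoxide product was detected by ferrous iron/xylenol orange as the 573 to 405 nm absorbance ratio. Arachidonic acid at 40 uM (final) was turned over for 30 min at room temperature by 150 nM human 12hLO, pH 7.0 Hepes buffer, after 15 min compound preincubation.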", "values": [
      {"smiles": "CC(=O)C1=C(C)N(Cc2ccc(F)cc2)C(=S)NC1c1ccc(Cl)cc1", "note": "(stereo not given)", "Potency": "inconclusive: 70.8 µM [inhibitor, partial curve, poor fit]"},
      {"smiles": "CC(=O)c1cc(-c2ccc(F)cc2)n(CCC(=O)NCc2ccc(C)cc2)c1C", "Potency": "inconclusive: 3.55 µM [inhibitor, full curve, poor fit]"},
      {"smiles": "Cc1ccccc1NC(=S)NCc1cccn1C", "Potency": "inconclusive: 44.7 µM [inhibitor, partial curve, poor fit]"},
      {"smiles": "CCOc1ccc(Oc2c(/C=N/NC(N)=O)c(C)nn2-c2ccccc2)cc1", "Potency": "inconclusive: 50.1 µM [inhibitor, partial curve, poor fit]"},
      {"smiles": "CCCCCCSc1ccc([C@@H]2[C@H]3C(=O)N(CC)C(=O)[C@H]3[C@]3(C(=O)OC)CCCN23)cc1", "Potency": "inconclusive: 20 µM [inhibitor, partial curve]"},
      {"smiles": "COCCNC(=S)N/N=C/c1c(OC)cc(OC)cc1OC", "Potency": "inconclusive: 44.7 µM [inhibitor, partial curve, poor fit]"},
      {"smiles": "CNC(=O)c1c(NC(=O)c2ccc(S(=O)(=O)N3CCCCC3C)cc2)sc2c1CCN(C)C2", "note": "(stereo not given)", "Potency": "inconclusive: 39.8 µM [inhibitor, partial curve, poor fit]"},
      {"smiles": "C[C@H](O)[C@@H]1C(=O)N2CCc3ccc(-c4ccccc4)cc3[C@@H]2C[C@@H]1N(C)C(=O)c1ccco1", "Potency": "inconclusive: 35.5 µM [inhibitor, single point]"},
      {"smiles": "Cc1cc(N2C(=O)c3ccc(C(=O)Nc4ccccc4O)cc3C2=O)no1", "Potency": "inconclusive: 89.1 µM [inhibitor, single point]"},
      {"smiles": "CC1(C(=O)NS(=O)(=O)c2cccs2)CCN1C(=O)c1ccccc1", "note": "(stereo not given)", "Potency": "inconclusive: 14.1 µM [inhibitor, partial curve, poor fit]"},
      {"smiles": "CCc1ccc(Sc2cc(C(=O)NCCCN3CCCC(C)C3)c3ccccc3n2)cc1", "note": "(stereo not given)", "Potency": "inconclusive: 56.2 µM [inhibitor, partial curve, poor fit]"},
      {"smiles": "COC(=O)c1cc(=O)n(CCc2ccc(OC)c(OC)c2)c(=Nc2ccc(F)c(Cl)c2)s1", "activity change, negative = inhibition": "inactive: 0.899%"},
      {"smiles": "COc1ccc(OCc2nnc(SCC(=O)NCC3CCCO3)n2N)cc1", "note": "(stereo not given)", "Potency": "inconclusive: 50.1 µM [inhibitor, single point]"},
      {"smiles": "CCc1ccc(C(C)NC(=O)CN2CSCC2=O)cc1", "note": "(stereo not given)", "Potency": "inconclusive: 89.1 µM [inhibitor, single point]"},
      {"smiles": "CC1(C)CC(NC(=S)Nc2cccc(Cl)c2)CC(C)(C)N1", "Potency": "inconclusive: 126 µM [inhibitor, single point]"},
      {"smiles": "CCC(O)(c1ccccc1)C(CN1CCOCC1)c1ccccc1", "note": "(stereo not given)", "Potency": "inconclusive: 35.5 µM [inhibitor, single point]"},
      {"smiles": "CC(=O)Nc1ccc(S(=O)(=O)N/N=C/c2cccnc2)cc1", "activity change, negative = inhibition": "inactive: 17.1%"},
      {"smiles": "O=C(O)c1cccnc1SC1CC(=O)N(Cc2ccccc2)C1=O", "note": "(stereo not given)", "Potency": "inconclusive: 28.2 µM [inhibitor, single point]"},
      {"smiles": "CCNC(=O)NC(=O)CN1CCN(Cc2ccc(C#N)cc2)CC1", "activity change, negative = inhibition": "inactive: 5.63%"},
      {"smiles": "O=C(Nc1ccc(CCO)cc1)c1cc2ccccc2oc1=O", "activity change, negative = inhibition": "inactive: -11.1%"},
      {"smiles": "Cc1cc(C)cc(OCCNC(=O)Cn2nc(C)c3ccccc3c2=O)c1", "activity change, negative = inhibition": "inactive: -16.3%"},
      {"smiles": "COc1cccc(OCCn2cc(C(=O)c3ccco3)c3ccccc32)c1", "activity change, negative = inhibition": "inactive: 2.13%"},
      {"smiles": "COc1ccc(C2=NS(=O)(=O)N(C)C(C(=O)NC3CCCC3)=C2)cc1", "activity change, negative = inhibition": "inactive: 3.09%"},
      {"smiles": "COc1ccc(NC(=O)NCc2cccn2Cc2cccc(F)c2)cc1OC", "Potency": "inconclusive: 4.47 µM [inhibitor, full curve, poor fit]"},
      {"smiles": "Cc1nc2ccc(Cl)cc2cc1C(=O)OCC(=O)NCC1CCCO1", "note": "(stereo not given)", "activity change, negative = inhibition": "inactive: -17.4%"},
      {"smiles": "CCCCC(CC)C(=O)Nc1cc(C(=O)NCc2ccc(C)cc2)ccc1N1CCC2(CC1)CC(c1cccc(Br)c1)=NO2", "note": "(stereo not given)", "Potency": "inconclusive: 39.8 µM [inhibitor, partial curve, poor fit]"},
      {"smiles": "CCC(NC(=O)Cn1cnc2sc(C)c(-c3ccccc3)c2c1=O)c1ccc(C)cc1", "note": "(stereo not given)", "Potency": "inconclusive: 31.6 µM [inhibitor, partial curve, poor fit]"},
      {"smiles": "CCCCCCCCN1C(=O)[C@H](CC(=O)NCC2CCCCC2)C[C@@]2(C(=O)OCC)CCCC=C12", "Potency": "inconclusive: 70.8 µM [inhibitor, partial curve, poor fit]"},
      {"smiles": "CN1CCN(c2ccc(-c3cccc(NC(=O)COc4ccc(Cl)cc4Cl)c3)nn2)CC1", "Potency": "inconclusive: 79.4 µM [inhibitor, partial curve, poor fit]"},
      {"smiles": "COc1cc(CNc2cccc(C(=O)O)c2)cc(Br)c1OCC(=O)NC(C)(C)C", "activity change, negative = inhibition": "inactive: 2.14%"},
      {"smiles": "Cc1nc(N2CCC(NCCN3CCCOC3=O)CC2)c2ccsc2n1", "Potency": "inconclusive: 14.1 µM [inhibitor, full curve]"},
      {"smiles": "COc1ccc(CC(=O)NC(c2cccs2)C(C)C)c(OC)c1OC", "note": "(stereo not given)", "Potency": "inconclusive: 35.5 µM [inhibitor, partial curve, poor fit]"},
      {"smiles": "COc1ccccc1C(=O)N/C(=C/c1ccc(Br)cc1)C(=O)N1CCCC1", "activity change, negative = inhibition": "inactive: -19.6%"},
      {"smiles": "COc1cc(C(=O)NC(=S)Nc2ccc(Cl)c(C(=O)O)c2)cc(OC)c1OC", "Potency": "inconclusive: 5.62 µM [inhibitor, partial curve, poor fit]"},
      {"smiles": "CCOc1ccc(S(=O)(=O)n2c(C)nc3ccccc32)cc1", "Potency": "inconclusive: 112 µM [inhibitor, single point]"},
      {"smiles": "O=C(COC(=O)c1cc([N+](=O)[O-])ccc1N1CCOCC1)Nc1c(Cl)cccc1Cl", "Potency": "inconclusive: 44.7 µM [inhibitor, partial curve, poor fit]"},
      {"smiles": "COC(=O)C(Cc1c[nH]c2ccccc12)NC(=O)c1cc(-c2ccc(OC)c(OC)c2)oc1C", "note": "(stereo not given)", "Potency": "inconclusive: 50.1 µM [inhibitor, partial curve, poor fit]"},
      {"smiles": "CC(=O)Nc1ccc(S(=O)(=O)Nc2nc3ccccc3nc2N2CCCCCC2)cc1", "Potency": "inconclusive: 79.4 µM [inhibitor, single point]"},
      {"smiles": "C=C(C)COc1cccc(N)c1", "Potency": "inconclusive: 3.98 µM [inhibitor, full curve]"},
      {"smiles": "CCc1c(-c2ccc(Cl)cc2)ncn1Cc1cccc(-c2ccccc2)c1", "Potency": "active: 8.91 µM"}
    ]}
  ]
}
